Assay results reported in patent US20050244864A1, “Development and use of fluorescent probes of unbound analytes” (priority 2004, published 2005).

Experiment: Mutant probe screening: baseline fluorescence ratio Ro and fatty acid response phenotype
Type: binding
Details: fluorescence ratio for zero FFAu concentration
Experimental: The intensity ratio (“R” value) for a given probe is determined. The ratio is calculated using the following formula: R=Fλ1/Fλ2 wherein, Fλ1, is the measured fluorescence intensities (intensity of sample with probe present minus intensity of sample without probe present) at wavelength 1 and Fλ2 is the measured fluorescence intensities (intensity of sample with probe present minus intensity of sample without probe present) at wavelength 2. Then, for a given probe, ΔR, the difference in R value between the measurement in the presence of the analyte and in the absence of the analyte, is calculated as follows: ΔR=R+analyte−R0 The ΔR value for a given probe is then compared to a reference probe, for example, ADIFAB or ADIFAB2, by ΔR/ΔRreference. This value is an indication of how dissimilar the new probe (derived by mutation of the template) is to the reference. By this method, probes with new and useful characteristics may be identified. Measurements of fluorescence intensities are obtained using standard techniques.
Plates were prepared and read in two stages. First, complexes and fatty acid free BSA were diluted to 6 μM BSA in HEPES and added to the 96-well plate at 300 μL per well. A MultiProbe II HT (Perkin Elmer) (an automated liquid handling system) was used to facilitate plate preparation for high throughput screening, but any automated or manual pipetting system will suffice. The background fluorescence was then measured at the same wavelengths as used for ADIFAB2 using a Fluorolog-3 spectrofluorometer with an external Micromax 384 fluorescence plate reader (Jobin Yvon). In the second stage, 30 μL aliquots of the mutant probes were added to multiple wells of the plate, one for each fatty acid and one with fatty acid free BSA only, and the fluorescence intensity at each wavelength was again measured on the plate reader. After subtraction of the background fluorescence, the fluorescence ratio of each well was calculated.
The fluorescence response was quantitatively compared to ADIFAB2 to search for changes in magnitude and fatty acid profile; for example the response to one fatty acid relative to another. For each probe the ratio differences (AR) between wells with each fatty acid compared to a corresponding well with fatty acid free BSA were recorded. The relative response compared to ADIFAB2 was calculated by dividing AR for each fatty acid by that for ADIFAB2 (ΔR/ΔRAD2). Probes that show large (ΔR/ΔRAD2) and different (ΔR/ΔRAD2) for different fatty acids were chosen for larger scale production and calibration. The methods described above can be used to screen other fatty acids and/or other unbound metabolites using other plate readers. We have attained equivalent results, for example, using the Gemini EM dedicated fluorescence plate reader (Molecular Devices).
Screening was conducted by evaluating ΔR/ΔRreference as described in paragraphs 0053-0055 and Example 1 for the following fatty acids: palmitate, palmitoleate, stearate, oleate, linoleate, linolenate and arachidonate, where the reference was to ADIFAB2. The screening rate was increased by use of 384 well plates. In this case the total well volume was reduced to 100 μL and the volume of probe used per well was 10 μL. Because the identity of each mutant probe was unknown in this example, the probes of interest were organized according to phenotype. Typically, phenotypic clusters could be generated by grouping unknown probes that gave Ro and ΔR/ΔRAD2 values within 10 to 20% of each other. The clone ID specifies the second library and well position of each clone. The fluorescence ratio for zero FFAu concentration (Ro) is shown in the second column. The remaining 7 columns are the ratios of the fluorescence response (R-Ro) for each probe relative to ADIFAB2 for arachidonate, linolenate, linoleate, oleate, palmitate, palmitoleate and stearate. […]

| Molecule | Ro |
| --- | --- |
| L1P8 H2: acrylodan-labeled rI-FABP mutein: Y14 M, L38 M, L72 W, Y117 wt (protein, UniProt P02693 2-132, looked up, variant Y14M L38M L72W, acrylodan label, acrylodan-labeled rI-FABP mutein: Y14 M, L38 M, L72 W, Y117 wt) Fatty acid-binding protein, …: AFDGTWKVDRNENMEKFMEKMGINVVKRKLGAHDNLKMTITQEGNKFTVKESSNFRNIDVVFELGVDFAYSWADGTELTGTWTMEGNKLVGKFKRVDNGKELIAVREISGNELIQTYTYEGVEAKRIFKKE | 0.69 |
| L2P8B8: acrylodan-labeled rI-FABP-L72A mutein: M18 WT, G31 WT, F55 WT, A73 F (protein, UniProt P02693 2-132, looked up, variant L72A A73F, acrylodan label, acrylodan-labeled rI-FABP-L72A mutein: M18 WT, G31 WT, F55 WT, A73 F) Fatty acid-binding protein, …: AFDGTWKVDRNENYEKFMEKMGINVVKRKLGAHDNLKLTITQEGNKFTVKESSNFRNIDVVFELGVDFAYSAFDGTELTGTWTMEGNKLVGKFKRVDNGKELIAVREISGNELIQTYTYEGVEAKRIFKKE | 0.31 |
| L2P22H10: acrylodan-labeled rI-FABP-L72A mutein: M18 I, G31 WT, F55 G, A73 M (protein, UniProt P02693 2-132, looked up, variant M18I F55G L72A A73M, acrylodan label, acrylodan-labeled rI-FABP-L72A mutein: M18 I, G31 WT, F55 G, A73 M) Fatty acid-binding protein, …: AFDGTWKVDRNENYEKFIEKMGINVVKRKLGAHDNLKLTITQEGNKFTVKESSNGRNIDVVFELGVDFAYSAMDGTELTGTWTMEGNKLVGKFKRVDNGKELIAVREISGNELIQTYTYEGVEAKRIFKKE | 0.30 |
| L2P9E12: acrylodan-labeled rI-FABP-L72A mutein: M18 L, G31 WT, F55 L, A73 I (protein, UniProt P02693 2-132, looked up, variant M18L F55L L72A A73I, acrylodan label, acrylodan-labeled rI-FABP-L72A mutein: M18 L, G31 WT, F55 L, A73 I) Fatty acid-binding protein, …: AFDGTWKVDRNENYEKFLEKMGINVVKRKLGAHDNLKLTITQEGNKFTVKESSNLRNIDVVFELGVDFAYSAIDGTELTGTWTMEGNKLVGKFKRVDNGKELIAVREISGNELIQTYTYEGVEAKRIFKKE | 0.38 |
| L1P12 E11: acrylodan-labeled rI-FABP mutein: Y14 L, L38 wt, L72 W, Y117 wt (protein, UniProt P02693 2-132, looked up, variant Y14L L72W, acrylodan label) Fatty acid-binding protein, …: AFDGTWKVDRNENLEKFMEKMGINVVKRKLGAHDNLKLTITQEGNKFTVKESSNFRNIDVVFELGVDFAYSWADGTELTGTWTMEGNKLVGKFKRVDNGKELIAVREISGNELIQTYTYEGVEAKRIFKKE | 0.59 |
| L1P17 A1: acrylodan-labeled rI-FABP mutein: Y14 I, L38 wt, L72 W, Y117 wt (protein, UniProt P02693 2-132, looked up, variant Y14I L72W, acrylodan label) Fatty acid-binding protein, …: AFDGTWKVDRNENIEKFMEKMGINVVKRKLGAHDNLKLTITQEGNKFTVKESSNFRNIDVVFELGVDFAYSWADGTELTGTWTMEGNKLVGKFKRVDNGKELIAVREISGNELIQTYTYEGVEAKRIFKKE | 0.56 |
| L2P22E6: acrylodan-labeled rI-FABP-L72A mutein: M18 V, G31 A, F55 I, A73 W (protein, UniProt P02693 2-132, looked up, variant M18V G31A F55I L72A A73W, acrylodan label, acrylodan-labeled rI-FABP-L72A mutein: M18 V, G31 A, F55 I, A73 W) Fatty acid-binding protein, …: AFDGTWKVDRNENYEKFVEKMGINVVKRKLAAHDNLKLTITQEGNKFTVKESSNIRNIDVVFELGVDFAYSAWDGTELTGTWTMEGNKLVGKFKRVDNGKELIAVREISGNELIQTYTYEGVEAKRIFKKE | 0.35 |
| L2P8A5: acrylodan-labeled rI-FABP-L72A mutein: M18 V, G31 A, F55 W, A73 W (protein, UniProt P02693 2-132, looked up, variant M18V G31A F55W L72A A73W, acrylodan label) Fatty acid-binding protein, …: AFDGTWKVDRNENYEKFVEKMGINVVKRKLAAHDNLKLTITQEGNKFTVKESSNWRNIDVVFELGVDFAYSAWDGTELTGTWTMEGNKLVGKFKRVDNGKELIAVREISGNELIQTYTYEGVEAKRIFKKE | 0.35 |
| L1P7 H4: acrylodan-labeled rI-FABP mutein: Y14 I, L38 M, L72 W, Y117 wt (protein, UniProt P02693 2-132, looked up, variant Y14I L38M L72W, acrylodan label, acrylodan-labeled rI-FABP mutein: Y14 I, L38 M, L72 W, Y117 wt) Fatty acid-binding protein, …: AFDGTWKVDRNENIEKFMEKMGINVVKRKLGAHDNLKMTITQEGNKFTVKESSNFRNIDVVFELGVDFAYSWADGTELTGTWTMEGNKLVGKFKRVDNGKELIAVREISGNELIQTYTYEGVEAKRIFKKE | 0.62 |
| L2P7F4: acrylodan-labeled rI-FABP-L72A mutein: M18 V, G31 V, F55 WT, A73 I (protein, UniProt P02693 2-132, looked up, variant M18V G31V L72A A73I, acrylodan label, acrylodan-labeled rI-FABP-L72A mutein: M18 V, G31 V, F55 WT, A73 I) Fatty acid-binding protein, …: AFDGTWKVDRNENYEKFVEKMGINVVKRKLVAHDNLKLTITQEGNKFTVKESSNFRNIDVVFELGVDFAYSAIDGTELTGTWTMEGNKLVGKFKRVDNGKELIAVREISGNELIQTYTYEGVEAKRIFKKE | 0.32 |
| L1P1 C3: acrylodan-labeled rI-FABP mutein: Y14 M, L38 wt, L72 W, Y117 wt (protein, UniProt P02693 2-132, looked up, variant Y14M L72W, acrylodan label) Fatty acid-binding protein, …: AFDGTWKVDRNENMEKFMEKMGINVVKRKLGAHDNLKLTITQEGNKFTVKESSNFRNIDVVFELGVDFAYSWADGTELTGTWTMEGNKLVGKFKRVDNGKELIAVREISGNELIQTYTYEGVEAKRIFKKE | 0.60 |
| L2P16A3: acrylodan-labeled rI-FABP-L72A mutein: M18 I, G31 L, F55 WT, A73 G (protein, UniProt P02693 2-132, looked up, variant M18I G31L L72A A73G, acrylodan label, acrylodan-labeled rI-FABP-L72A mutein: M18 I, G31 L, F55 WT, A73 G) Fatty acid-binding protein, …: AFDGTWKVDRNENYEKFIEKMGINVVKRKLLAHDNLKLTITQEGNKFTVKESSNFRNIDVVFELGVDFAYSAGDGTELTGTWTMEGNKLVGKFKRVDNGKELIAVREISGNELIQTYTYEGVEAKRIFKKE | 0.37 |
| L2P1E6: acrylodan-labeled rI-FABP-L72A mutein: M18 L, G31 WT, F55 WT, A73 L (protein, UniProt P02693 2-132, looked up, variant M18L L72A A73L, acrylodan label) Fatty acid-binding protein, …: AFDGTWKVDRNENYEKFLEKMGINVVKRKLGAHDNLKLTITQEGNKFTVKESSNFRNIDVVFELGVDFAYSALDGTELTGTWTMEGNKLVGKFKRVDNGKELIAVREISGNELIQTYTYEGVEAKRIFKKE | 0.34 |
| L2P21G3: acrylodan-labeled rI-FABP-L72A mutein: M18 I, G31 M, F55 M, A73 WT (protein, UniProt P02693 2-132, looked up, variant M18I G31M F55M L72A, acrylodan label, acrylodan-labeled rI-FABP-L72A mutein: M18 I, G31 M, F55 M, A73 WT) Fatty acid-binding protein, …: AFDGTWKVDRNENYEKFIEKMGINVVKRKLMAHDNLKLTITQEGNKFTVKESSNMRNIDVVFELGVDFAYSAADGTELTGTWTMEGNKLVGKFKRVDNGKELIAVREISGNELIQTYTYEGVEAKRIFKKE | 0.36 |
| L2P23G7: acrylodan-labeled rI-FABP-L72A mutein: M18 V, G31 F, F55 L, A73 WT (protein, UniProt P02693 2-132, looked up, variant M18V G31F F55L L72A, acrylodan label, acrylodan-labeled rI-FABP-L72A mutein: M18 V, G31 F, F55 L, A73 WT) Fatty acid-binding protein, …: AFDGTWKVDRNENYEKFVEKMGINVVKRKLFAHDNLKLTITQEGNKFTVKESSNLRNIDVVFELGVDFAYSAADGTELTGTWTMEGNKLVGKFKRVDNGKELIAVREISGNELIQTYTYEGVEAKRIFKKE | 0.30 |
| L2P8F11: acrylodan-labeled rI-FABP-L72A mutein: M18 WT, G31 WT, F55 WT, A73 I (protein, UniProt P02693 2-132, looked up, variant L72A A73I, acrylodan label, acrylodan-labeled rI-FABP-L72A mutein: M18 WT, G31 WT, F55 WT, A73 I) Fatty acid-binding protein, …: AFDGTWKVDRNENYEKFMEKMGINVVKRKLGAHDNLKLTITQEGNKFTVKESSNFRNIDVVFELGVDFAYSAIDGTELTGTWTMEGNKLVGKFKRVDNGKELIAVREISGNELIQTYTYEGVEAKRIFKKE | 0.28 |
| L2P18H12: acrylodan-labeled rI-FABP-L72A mutein: M18 I, G31 V, F55 WT, A73 G (protein, UniProt P02693 2-132, looked up, variant M18I G31V L72A A73G, acrylodan label, acrylodan-labeled rI-FABP-L72A mutein: M18 I, G31 V, F55 WT, A73 G) Fatty acid-binding protein, …: AFDGTWKVDRNENYEKFIEKMGINVVKRKLVAHDNLKLTITQEGNKFTVKESSNFRNIDVVFELGVDFAYSAGDGTELTGTWTMEGNKLVGKFKRVDNGKELIAVREISGNELIQTYTYEGVEAKRIFKKE | 0.36 |
| L2P23A4: acrylodan-labeled rI-FABP-L72A mutein: M18 V, G31 I, F55 L, A73 V (protein, UniProt P02693 2-132, looked up, variant M18V G31I F55L L72A A73V, acrylodan label) Fatty acid-binding protein, …: AFDGTWKVDRNENYEKFVEKMGINVVKRKLIAHDNLKLTITQEGNKFTVKESSNLRNIDVVFELGVDFAYSAVDGTELTGTWTMEGNKLVGKFKRVDNGKELIAVREISGNELIQTYTYEGVEAKRIFKKE | 0.40 |
